Laboratory results published in patent US20120316199A1, “COMPOSITIONS AND METHODS FOR TREATING, CONTROLLING, REDUCING, OR AMELIORATING INFLAMMATORY PAIN” (priority 2011, published 2012).
Further values from the same series stand in other lists.

Test system: intraocular pressure (IOP)
Experiment: Intraocular pressure in New Zealand White rabbits, topical dosing four times daily
Type: in vivo
Conditions: P.M. readings
Method: On Days 1-31, animals received daily topical doses of the appropriate test article into the right eye. Animals were dosed four times per day, with doses administered 2 hours apart. Doses were administered using a calibrated 50-μL pipette. The eyelids were held close for 10 seconds immediately following dosing. The time of each dose administration was recorded.
Intraocular pressure (“IOP”) was determined for both eyes of each animal on Days 3, 5, 10, 12, 16, 18, 22, 24, 26, 30, and 32. IOP was evaluated with a Medtronic Solan, Model 30 classic pneumatonometer. Proparacaine hydrochloride 0.5% (1 drop) was delivered to each eye prior to IOP measurement. IOP was measured on Monday. Wednesday, and Friday of each week. A two-point diurnal curve was established: IOP was recorded at 8 a.m. and 12 p.m. on Day 3, and at 8 a.m. and 2 p.m. on later days, with a ±1 hour range for each of these times. The time of the measurements was recorded.
Descriptive statistics were prepared for IOP data of each treatment group (left and right eyes separately) at each measurement interval. The statistics included the number of observations (“N”) mean, standard deviation (“STD”), and standard error (“SEM”). Statistical analyses were conducted on IOP results using Statistical Analysis Systems (SAS Institute. Inc., Cary, N.C. V8.0). Parameters were evaluated using analysis of variance/GLM Procedure followed by Tukey's Standardized Range Test (Tukey, 1985) for post hoc comparisons of group means. The level of significance was set at a probability of p<0.05 for all statistical procedures. Group IOP means were compared at each interval, with left and right eyes compared separately.

For Cc1ccc2c(NC[C@](O)(CC(C)(C)c3cc(F)cc4c3OCC4)C(F)(F)F)cccc2n1 [BOL-303242-X, mapracorat], the “Intraocular Pressure, MEAN” value (treated right eyes, Day 3, 1 mg/g (Group D)) was 24.7 mmHg, the “Intraocular Pressure, MEAN” value (treated right eyes, Day 3, 5 mg/g (Group C)) was 23.6 mmHg and the “Intraocular Pressure, MEAN” value (treated right eyes, Day 3, 10 mg/g (Group B)) was 23.1 mmHg. The “Intraocular Pressure, MEAN” value (treated right eyes, Day 5, 1 mg/g (Group D)) was 25.5 mmHg, the “Intraocular Pressure, MEAN” value (treated right eyes, Day 5, 5 mg/g (Group C)) was 24.8 mmHg and the “Intraocular Pressure, MEAN” value (treated right eyes, Day 5, 10 mg/g (Group B)) was 25.7 mmHg. The “Intraocular Pressure, MEAN” value (treated right eyes, Day 10, 1 mg/g (Group D)) was 25.3 mmHg, the “Intraocular Pressure, MEAN” value (treated right eyes, Day 10, 5 mg/g (Group C)) was 25.6 mmHg and the “Intraocular Pressure, MEAN” value (treated right eyes, Day 10, 10 mg/g (Group B)) was 24.3 mmHg. The “Intraocular Pressure, MEAN” value (treated right eyes, Day 12, 1 mg/g (Group D)) was 24.0 mmHg, the “Intraocular Pressure, MEAN” value (treated right eyes, Day 12, 5 mg/g (Group C)) was 23.4 mmHg and the “Intraocular Pressure, MEAN” value (treated right eyes, Day 12, 10 mg/g (Group B)) was 23.8 mmHg. The “Intraocular Pressure, MEAN” value (treated right eyes, Day 16, 1 mg/g (Group D)) was 22.0 mmHg, the “Intraocular Pressure, MEAN” value (treated right eyes, Day 16, 5 mg/g (Group C)) was 21.4 mmHg and the “Intraocular Pressure, MEAN” value (treated right eyes, Day 16, 10 mg/g (Group B)) was 21.6 mmHg. For the same compound, the “Intraocular Pressure, MEAN” value (treated right eyes, Day 18, 1 mg/g (Group D)) was 23.1 mmHg, the “Intraocular Pressure, MEAN” value (treated right eyes, Day 18, 5 mg/g (Group C)) was 21.6 mmHg and the “Intraocular Pressure, MEAN” value (treated right eyes, Day 18, 10 mg/g (Group B)) was 22.5 mmHg. The “Intraocular Pressure, MEAN” value (treated right eyes, Day 22, 1 mg/g (Group D)) was 22.5 mmHg, the “Intraocular Pressure, MEAN” value (treated right eyes, Day 22, 5 mg/g (Group C)) was 22.8 mmHg and the “Intraocular Pressure, MEAN” value (treated right eyes, Day 22, 10 mg/g (Group B)) was 23.1 mmHg. The “Intraocular Pressure, MEAN” value (treated right eyes, Day 24, 1 mg/g (Group D)) was 23.6 mmHg, the “Intraocular Pressure, MEAN” value (treated right eyes, Day 24, 5 mg/g (Group C)) was 23.4 mmHg and the “Intraocular Pressure, MEAN” value (treated right eyes, Day 24, 10 mg/g (Group B)) was 22.8 mmHg. For the same compound, the “Intraocular Pressure, MEAN” value (treated right eyes, Day 26, 1 mg/g (Group D)) was 22.6 mmHg, the “Intraocular Pressure, MEAN” value (treated right eyes, Day 26, 5 mg/g (Group C)) was 22.2 mmHg and the “Intraocular Pressure, MEAN” value (treated right eyes, Day 26, 10 mg/g (Group B)) was 20.9 mmHg. The “Intraocular Pressure, MEAN” value (treated right eyes, Day 30, 1 mg/g (Group D)) was 21.8 mmHg, the “Intraocular Pressure, MEAN” value (treated right eyes, Day 30, 5 mg/g (Group C)) was 22.4 mmHg and the “Intraocular Pressure, MEAN” value (treated right eyes, Day 30, 10 mg/g (Group B)) was 22.4 mmHg. For the same compound, the “Intraocular Pressure, MEAN” value (treated right eyes, Day 32, 1 mg/g (Group D)) was 22.9 mmHg, the “Intraocular Pressure, MEAN” value (treated right eyes, Day 32, 5 mg/g (Group C)) was 22.7 mmHg and the “Intraocular Pressure, MEAN” value (treated right eyes, Day 32, 10 mg/g (Group B)) was 23.3 mmHg. For the same compound, the “Intraocular Pressure, MEAN” value (treated right eyes, Pre-Study, 1 mg/g (Group D)) was 24.2 mmHg, the “Intraocular Pressure, MEAN” value (treated right eyes, Pre-Study, 5 mg/g (Group C)) was 24.5 mmHg and the “Intraocular Pressure, MEAN” value (treated right eyes, Pre-Study, 10 mg/g (Group B)) was 24.0 mmHg. For the same compound, the “Intraocular Pressure, MEAN” value (untreated left eyes, Day 30, 1 mg/g (Group D)) was 21.3 mmHg, the “Intraocular Pressure, MEAN” value (untreated left eyes, Day 30, 5 mg/g (Group C)) was 20.9 mmHg and the “Intraocular Pressure, MEAN” value (untreated left eyes, Day 32, 1 mg/g (Group D)) was 21.9 mmHg. For the same compound, the “Intraocular Pressure, MEAN” value (untreated left eyes, Day 32, 5 mg/g (Group C)) was 21.5 mmHg, the “Intraocular Pressure, MEAN” value (untreated left eyes, Day 32, 10 mg/g (Group B)) was 22.6 mmHg and the “Intraocular Pressure, MEAN” value (untreated left eyes, Pre-Study, 1 mg/g (Group D)) was 24.2 mmHg. The “Intraocular Pressure, MEAN” value (untreated left eyes, Pre-Study, 5 mg/g (Group C)) was 24.4 mmHg and the “Intraocular Pressure, MEAN” value (untreated left eyes, Pre-Study, 10 mg/g (Group B)) was 23.9 mmHg.
